Reference: PubChem BioAssay AID743454 (Peter MacCallum Cancer Centre, 2014)

Assay: 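Search for knock-downs that restore vorinostat killing in resistant colon cancer cells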 (primary screen)
Cell system: human HCT116-VR colon cancer cells, selected for vorinostat resistance
Knock-down reagent: siRNA pool against human genes, 40 nM siRNA pool
Duration: vorinostat for 24 h, read-out about 72 h after transfection
Conditions: vorinostat at 2.5 µM final
Read-out: 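Cell viability by CellTiter-Fluor and caspase 3/7 activity by luminescence, each scaled to mock wells per plate, duplicates averaged, then robust z-scored over all plates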
Reading the numbers: viability robust z-score: higher = more viable cells than screen typical; caspase robust z-score: higher = more caspase 3/7 activity than screen typical
Rule for the call: 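Hits are knock-downs in viability class RV1/RV2 or caspase class CA1/CA2, excluding ones that killed cells in the no-drug cell-count arm; hits then retested with single siRNAs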
In all, the deposit lists about 18,000 reagents; this is a random part of them. 450 of them (2.5%) count as active. 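Single biological run; no consistent viability z cut-off exists, so the class columns, not z-scores, define the calls.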

The first 6 records, ahead of the listing:
| gene knocked down | viability hit class | caspase hit class | viability robust z-score | caspase robust z-score | activity call |
| --- | --- | --- | --- | --- | --- |
| CLIC4 (CLIC family member 4) | no change | no change | 0.26 | 0.09 | inactive |
| MYOM1 (myomesin 1) | no change | no change | -0.58 | -0.54 | inactive |
| CTAGE6 (CTAGE family member 6) | no change | no change | -0.44 | 2.55 | inactive |
| SST (somatostatin) | no change | no change | 0.95 | 0.09 | inactive |
| RIN1 (Ras and Rab interactor 1) | no change | no change | -1.34 | -0.65 | inactive |
| TMEM9B (TMEM9 domain family member B) | no change | no change | -0.84 | 0.48 | inactive |

The list itself, repeating the preview:
| gene knocked down | viability hit class | caspase hit class | viability robust z-score | caspase robust z-score | activity call |
| --- | --- | --- | --- | --- | --- |
| CLIC4 (CLIC family member 4) | no change | no change | 0.26 | 0.09 | inactive |
| MYOM1 (myomesin 1) | no change | no change | -0.58 | -0.54 | inactive |
| CTAGE6 (CTAGE family member 6) | no change | no change | -0.44 | 2.55 | inactive |
| SST (somatostatin) | no change | no change | 0.95 | 0.09 | inactive |
| RIN1 (Ras and Rab interactor 1) | no change | no change | -1.34 | -0.65 | inactive |
| TMEM9B (TMEM9 domain family member B) | no change | no change | -0.84 | 0.48 | inactive |
| FMR1 (fragile X messenger ribonucleoprotein 1) | no change | CA2 (caspase activation) | -2.43 | 5.15 | active |
| SNX5 (sorting nexin 5) | no change | no change | -0.32 | -0.81 | inactive |
| DCAF4L2 (DDB1 and CUL4 associated factor 4 like 2) | no change | no change | 1.69 | -0.21 | inactive |
| DBF4B (DBF4B-CDC7 kinase regulatory subunit) | no change | no change | 0.06 | 0.19 | inactive |
| KHDC1 (KH domain containing 1) | no change | no change | 1.48 | 0.45 | inactive |
| BATF3 (basic leucine zipper ATF-like transcription factor 3) | no change | no change | -1.69 | 2.33 | inactive |
| NLN (neurolysin) | no change | no change | -1.33 | 3.66 | inactive |
| POLR3D (RNA polymerase III subunit D) | no change | no change | -1.88 | 0.84 | inactive |
| SLC9A5 | no change | no change | 0.62 | 0.66 | inactive |
| HIRIP3 (HIRA interacting protein 3) | no change | no change | -1.13 | -1.06 | inactive |
| CCL25 (C-C motif chemokine ligand 25) | RV2 (reduced viability) | no change | -3.72 | 2.7 | active |
| EMSY (EMSY transcriptional repressor, BRCA2 interacting) | no change | no change | -0.02 | -1.17 | inactive |
| TMPRSS11D (transmembrane serine protease 11D) | no change | no change | 0.03 | -1.07 | inactive |
| TMEM214 (transmembrane protein 214) | no change | no change | 0.55 | -0.52 | inactive |
| CNGB1 (cyclic nucleotide gated channel subunit beta 1) | no change | no change | 0.06 | 2.44 | inactive |
| SLC25A16 | no change | no change | 0.08 | 0.74 | inactive |
| FABP6 (fatty acid binding protein 6) | RV2 (reduced viability) | no change | -3.52 | 2.92 | active |
| ANXA7 (annexin A7) | no change | no change | -0.42 | -0.58 | inactive |
| SAP18 (Sin3A associated protein 18) | no change | no change | -2.02 | 4.37 | inactive |
| POLR1H (RNA polymerase I subunit H) | no change | no change | -0.64 | -0.04 | inactive |
| PLCXD1 | no change | no change | 0.89 | 3.64 | inactive |
| C1orf21 (chromosome 1 open reading frame 21) | no change | no change | 1.71 | 2.12 | inactive |
| CEP83 (centrosomal protein 83) | no change | no change | 0.15 | 2.17 | inactive |
| FAM43A (family with sequence similarity 43 member A) | no change | no change | -0.49 | -0.3 | inactive |
| RAB11FIP2 (RAB11 family interacting protein 2) | no change | no change | -1.23 | -0.22 | inactive |
| ERICH1 (glutamate rich 1) | no change | no change | -0.28 | -0.91 | inactive |
| BACH1 (BTB domain and CNC homolog 1) | no change | no change | -0.66 | -0.54 | inactive |
| ITGA2B (integrin subunit alpha 2b) | no change | no change | -1.27 | 1.33 | inactive |
| CALCB (calcitonin related polypeptide beta) | no change | no change | 0.85 | 2.27 | inactive |
| SLCO5A1 | no change | no change | 0.45 | -0.87 | inactive |
| MBNL1 (muscleblind like splicing regulator 1) | no change | no change | -0.38 | 0.85 | inactive |
| KRTAP5-10 (keratin associated protein 5-10) | no change | no change | 0.14 | -0.94 | inactive |
| KCNG1 | no change | no change | 0.78 | 3.92 | inactive |
| SALL4 (spalt like transcription factor 4) | no change | no change | 0.79 | 0.34 | inactive |
| TMEM256 (transmembrane protein 256) | no change | no change | -0.9 | -0.59 | inactive |
| CCDC140 (CCDC140 long non-coding RNA) | no change | no change | 1.34 | -0.46 | inactive |
| CALCOCO2 (calcium binding and coiled-coil domain 2) | no change | no change | -0.44 | 1.9 | inactive |
| ZNF135 (zinc finger protein 135) | no change | no change | 0.68 | -0.34 | inactive |
| GNA11 (G protein subunit alpha 11) | no change | no change | -0.56 | 0.59 | inactive |
| SLC26A5 | no change | no change | -0.75 | -0.3 | inactive |
| CSF2 (colony stimulating factor 2) | no change | no change | -1.22 | 4.02 | inactive |
| FUT9 (fucosyltransferase 9) | no change | no change | -0.38 | -0.34 | inactive |
| TMTC4 (transmembrane O-mannosyltransferase targeting cadherins 4) | no change | no change | -1.27 | 0.36 | inactive |
| ATOH1 (atonal bHLH transcription factor 1) | no change | no change | 1.31 | -0.51 | inactive |
| MID2 (midline 2) | no change | no change | -0.55 | -0.9 | inactive |
| RPS6KA3 (ribosomal protein S6 kinase A3) | no change | no change | 0.42 | 0.05 | inactive |
| NALCN (sodium leak channel, non-selective) | no change | no change | 0.75 | -0.45 | inactive |
| AK2 (adenylate kinase 2) | no change | no change | -1.52 | 2.13 | inactive |
| TMEM202 (transmembrane protein 202) | no change | no change | -0.5 | -0.5 | inactive |
| UQCRFS1 | no change | no change | 0.4 | -0.75 | inactive |
| EIF6 (eukaryotic translation initiation factor 6) | no change | no change | -0.98 | -0.36 | inactive |
